Experimental data as given in the supplement of paper PMC11732987, “Enantioselective OTUD7B fragment discovery through chemoproteomics screening and high-throughput optimisation” (Communications Chemistry, 2025).
The other results are listed elsewhere or left out. The data scatter; read single values as rough.

Amino acid sequences for entries named in this document (tags omitted). A change or cut given only in a name is not applied to a line headed by its entry. Residues count along the entry.
UniProt Q9Y6D6: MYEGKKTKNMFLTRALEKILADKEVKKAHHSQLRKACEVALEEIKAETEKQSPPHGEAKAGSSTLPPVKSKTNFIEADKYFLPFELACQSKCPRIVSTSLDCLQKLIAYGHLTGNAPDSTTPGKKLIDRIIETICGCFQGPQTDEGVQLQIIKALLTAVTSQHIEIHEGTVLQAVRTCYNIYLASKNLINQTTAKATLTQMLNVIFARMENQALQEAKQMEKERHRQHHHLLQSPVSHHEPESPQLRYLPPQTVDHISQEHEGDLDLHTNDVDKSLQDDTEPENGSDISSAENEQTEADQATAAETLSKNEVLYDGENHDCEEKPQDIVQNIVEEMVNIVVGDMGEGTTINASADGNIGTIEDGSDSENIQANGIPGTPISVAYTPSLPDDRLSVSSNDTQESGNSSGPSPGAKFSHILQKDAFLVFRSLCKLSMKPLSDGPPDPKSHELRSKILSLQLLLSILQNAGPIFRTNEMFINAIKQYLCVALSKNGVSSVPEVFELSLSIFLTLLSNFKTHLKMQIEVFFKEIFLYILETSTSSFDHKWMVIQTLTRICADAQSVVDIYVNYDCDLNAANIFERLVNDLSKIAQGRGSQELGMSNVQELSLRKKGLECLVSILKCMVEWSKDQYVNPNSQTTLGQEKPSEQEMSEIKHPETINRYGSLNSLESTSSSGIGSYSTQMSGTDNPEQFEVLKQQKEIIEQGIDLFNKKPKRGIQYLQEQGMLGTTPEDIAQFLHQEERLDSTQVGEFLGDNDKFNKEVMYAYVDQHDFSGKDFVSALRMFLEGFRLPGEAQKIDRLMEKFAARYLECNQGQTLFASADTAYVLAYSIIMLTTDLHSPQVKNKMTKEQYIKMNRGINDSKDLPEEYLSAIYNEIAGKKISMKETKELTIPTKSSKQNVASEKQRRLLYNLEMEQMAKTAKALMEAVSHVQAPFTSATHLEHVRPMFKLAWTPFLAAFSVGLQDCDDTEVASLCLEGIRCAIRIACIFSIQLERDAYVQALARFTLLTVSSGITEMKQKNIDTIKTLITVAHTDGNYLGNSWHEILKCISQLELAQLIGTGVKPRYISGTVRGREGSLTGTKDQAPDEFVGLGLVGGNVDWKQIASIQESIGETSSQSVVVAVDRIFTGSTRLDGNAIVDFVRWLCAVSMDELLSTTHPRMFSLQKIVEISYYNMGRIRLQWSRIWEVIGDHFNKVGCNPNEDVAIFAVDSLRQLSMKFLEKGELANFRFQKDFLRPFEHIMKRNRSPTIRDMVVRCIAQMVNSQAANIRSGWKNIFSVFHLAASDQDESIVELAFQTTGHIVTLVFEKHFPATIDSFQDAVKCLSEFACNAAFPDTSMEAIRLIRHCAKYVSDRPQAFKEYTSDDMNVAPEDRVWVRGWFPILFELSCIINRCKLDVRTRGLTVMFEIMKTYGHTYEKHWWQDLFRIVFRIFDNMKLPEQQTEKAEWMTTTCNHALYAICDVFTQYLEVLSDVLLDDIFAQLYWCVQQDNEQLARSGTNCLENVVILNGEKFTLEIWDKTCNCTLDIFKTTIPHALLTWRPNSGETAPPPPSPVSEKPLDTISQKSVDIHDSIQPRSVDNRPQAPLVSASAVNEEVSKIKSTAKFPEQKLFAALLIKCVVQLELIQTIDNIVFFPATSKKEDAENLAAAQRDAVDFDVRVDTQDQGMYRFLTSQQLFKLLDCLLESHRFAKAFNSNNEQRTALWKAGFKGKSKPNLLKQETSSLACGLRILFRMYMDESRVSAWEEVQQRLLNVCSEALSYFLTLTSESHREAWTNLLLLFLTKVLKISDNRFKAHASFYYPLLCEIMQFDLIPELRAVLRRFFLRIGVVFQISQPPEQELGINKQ
UniProt O14727: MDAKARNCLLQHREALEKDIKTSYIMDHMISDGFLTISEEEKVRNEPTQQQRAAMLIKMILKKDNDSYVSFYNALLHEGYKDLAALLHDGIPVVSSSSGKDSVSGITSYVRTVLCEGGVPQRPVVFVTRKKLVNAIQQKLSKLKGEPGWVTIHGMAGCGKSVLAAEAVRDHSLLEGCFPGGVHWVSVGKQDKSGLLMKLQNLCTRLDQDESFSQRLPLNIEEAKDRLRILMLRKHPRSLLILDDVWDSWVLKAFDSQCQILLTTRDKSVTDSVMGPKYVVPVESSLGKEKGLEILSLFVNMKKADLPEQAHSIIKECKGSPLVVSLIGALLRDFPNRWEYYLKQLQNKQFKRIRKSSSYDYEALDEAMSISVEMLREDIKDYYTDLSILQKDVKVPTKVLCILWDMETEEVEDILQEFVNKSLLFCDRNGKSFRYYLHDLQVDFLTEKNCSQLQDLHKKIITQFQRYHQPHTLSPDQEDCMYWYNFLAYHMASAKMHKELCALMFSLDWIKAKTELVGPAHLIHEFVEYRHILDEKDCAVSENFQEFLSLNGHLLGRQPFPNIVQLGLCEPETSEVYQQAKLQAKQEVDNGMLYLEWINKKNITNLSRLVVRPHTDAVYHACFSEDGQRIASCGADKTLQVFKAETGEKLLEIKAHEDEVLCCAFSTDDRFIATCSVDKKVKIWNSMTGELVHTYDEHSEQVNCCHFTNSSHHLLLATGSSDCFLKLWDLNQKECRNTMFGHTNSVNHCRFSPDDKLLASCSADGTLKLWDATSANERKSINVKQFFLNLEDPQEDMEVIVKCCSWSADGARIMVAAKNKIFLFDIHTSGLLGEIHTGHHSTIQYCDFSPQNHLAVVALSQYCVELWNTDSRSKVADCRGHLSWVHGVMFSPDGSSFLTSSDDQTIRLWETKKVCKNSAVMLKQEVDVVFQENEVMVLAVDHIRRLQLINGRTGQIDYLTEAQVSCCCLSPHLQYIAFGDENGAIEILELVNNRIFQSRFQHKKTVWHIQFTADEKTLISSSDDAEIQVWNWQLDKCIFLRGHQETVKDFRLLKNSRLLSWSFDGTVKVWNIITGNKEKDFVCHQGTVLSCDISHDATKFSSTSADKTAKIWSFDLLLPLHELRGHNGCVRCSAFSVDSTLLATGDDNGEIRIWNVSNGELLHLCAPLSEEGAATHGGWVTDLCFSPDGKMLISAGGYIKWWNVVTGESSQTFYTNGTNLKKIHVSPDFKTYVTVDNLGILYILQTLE
UniProt Q63HQ0, 173-193: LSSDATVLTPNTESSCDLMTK
UniProt Q9UBZ4: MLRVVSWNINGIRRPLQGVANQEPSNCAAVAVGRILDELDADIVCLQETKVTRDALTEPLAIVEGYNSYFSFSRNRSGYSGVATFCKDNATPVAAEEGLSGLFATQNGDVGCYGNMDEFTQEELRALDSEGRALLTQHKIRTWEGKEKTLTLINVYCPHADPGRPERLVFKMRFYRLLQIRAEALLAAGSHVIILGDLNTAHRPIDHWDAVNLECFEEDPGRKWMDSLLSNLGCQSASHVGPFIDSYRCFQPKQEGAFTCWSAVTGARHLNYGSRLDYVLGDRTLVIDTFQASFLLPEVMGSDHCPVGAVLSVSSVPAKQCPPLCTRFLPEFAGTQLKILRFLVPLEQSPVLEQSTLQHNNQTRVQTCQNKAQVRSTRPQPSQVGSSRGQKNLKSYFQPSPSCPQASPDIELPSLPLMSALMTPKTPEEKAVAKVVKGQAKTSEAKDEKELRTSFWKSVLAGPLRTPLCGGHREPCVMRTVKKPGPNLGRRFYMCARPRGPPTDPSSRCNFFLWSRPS
UniProt Q8TER5, whole entry, looked up: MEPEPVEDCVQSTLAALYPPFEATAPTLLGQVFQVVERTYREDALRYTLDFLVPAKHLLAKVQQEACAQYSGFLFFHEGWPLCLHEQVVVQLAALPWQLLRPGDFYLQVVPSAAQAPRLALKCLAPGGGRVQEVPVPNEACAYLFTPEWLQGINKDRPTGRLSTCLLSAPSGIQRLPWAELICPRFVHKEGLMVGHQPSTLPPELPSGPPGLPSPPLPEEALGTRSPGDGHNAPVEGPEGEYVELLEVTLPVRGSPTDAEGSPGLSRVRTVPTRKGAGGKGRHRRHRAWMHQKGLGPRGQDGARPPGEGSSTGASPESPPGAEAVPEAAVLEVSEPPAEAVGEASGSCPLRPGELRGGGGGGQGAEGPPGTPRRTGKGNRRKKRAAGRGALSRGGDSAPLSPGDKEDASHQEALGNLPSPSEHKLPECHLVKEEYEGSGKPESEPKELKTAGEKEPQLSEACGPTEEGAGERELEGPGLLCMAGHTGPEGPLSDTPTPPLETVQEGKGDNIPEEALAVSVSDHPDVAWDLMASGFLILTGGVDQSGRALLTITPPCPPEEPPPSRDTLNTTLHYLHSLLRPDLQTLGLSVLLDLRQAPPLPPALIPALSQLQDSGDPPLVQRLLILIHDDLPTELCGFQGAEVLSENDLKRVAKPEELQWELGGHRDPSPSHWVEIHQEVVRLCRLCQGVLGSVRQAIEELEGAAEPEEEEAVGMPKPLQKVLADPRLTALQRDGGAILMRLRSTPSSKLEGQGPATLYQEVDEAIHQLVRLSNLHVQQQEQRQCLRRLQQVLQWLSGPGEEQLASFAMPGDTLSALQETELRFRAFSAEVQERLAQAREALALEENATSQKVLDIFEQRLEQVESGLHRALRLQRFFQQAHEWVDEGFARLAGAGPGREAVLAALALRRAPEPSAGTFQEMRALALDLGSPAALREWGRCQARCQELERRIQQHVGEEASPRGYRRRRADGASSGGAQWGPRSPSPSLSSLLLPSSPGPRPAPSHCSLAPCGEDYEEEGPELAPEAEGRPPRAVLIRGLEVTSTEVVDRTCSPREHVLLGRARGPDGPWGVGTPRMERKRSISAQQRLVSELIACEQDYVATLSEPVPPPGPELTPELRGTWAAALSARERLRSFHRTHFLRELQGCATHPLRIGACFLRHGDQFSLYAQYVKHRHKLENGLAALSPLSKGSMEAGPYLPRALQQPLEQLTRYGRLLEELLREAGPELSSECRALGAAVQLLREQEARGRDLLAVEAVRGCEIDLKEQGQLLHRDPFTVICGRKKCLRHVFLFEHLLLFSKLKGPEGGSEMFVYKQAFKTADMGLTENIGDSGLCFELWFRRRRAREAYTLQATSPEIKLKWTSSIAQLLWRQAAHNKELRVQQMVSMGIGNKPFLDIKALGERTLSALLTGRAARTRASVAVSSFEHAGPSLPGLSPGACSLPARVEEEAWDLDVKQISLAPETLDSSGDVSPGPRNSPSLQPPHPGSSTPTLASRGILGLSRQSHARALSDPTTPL
UniProt Q68EM7, 301-325: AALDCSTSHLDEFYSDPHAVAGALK
UniProt Q52LW3: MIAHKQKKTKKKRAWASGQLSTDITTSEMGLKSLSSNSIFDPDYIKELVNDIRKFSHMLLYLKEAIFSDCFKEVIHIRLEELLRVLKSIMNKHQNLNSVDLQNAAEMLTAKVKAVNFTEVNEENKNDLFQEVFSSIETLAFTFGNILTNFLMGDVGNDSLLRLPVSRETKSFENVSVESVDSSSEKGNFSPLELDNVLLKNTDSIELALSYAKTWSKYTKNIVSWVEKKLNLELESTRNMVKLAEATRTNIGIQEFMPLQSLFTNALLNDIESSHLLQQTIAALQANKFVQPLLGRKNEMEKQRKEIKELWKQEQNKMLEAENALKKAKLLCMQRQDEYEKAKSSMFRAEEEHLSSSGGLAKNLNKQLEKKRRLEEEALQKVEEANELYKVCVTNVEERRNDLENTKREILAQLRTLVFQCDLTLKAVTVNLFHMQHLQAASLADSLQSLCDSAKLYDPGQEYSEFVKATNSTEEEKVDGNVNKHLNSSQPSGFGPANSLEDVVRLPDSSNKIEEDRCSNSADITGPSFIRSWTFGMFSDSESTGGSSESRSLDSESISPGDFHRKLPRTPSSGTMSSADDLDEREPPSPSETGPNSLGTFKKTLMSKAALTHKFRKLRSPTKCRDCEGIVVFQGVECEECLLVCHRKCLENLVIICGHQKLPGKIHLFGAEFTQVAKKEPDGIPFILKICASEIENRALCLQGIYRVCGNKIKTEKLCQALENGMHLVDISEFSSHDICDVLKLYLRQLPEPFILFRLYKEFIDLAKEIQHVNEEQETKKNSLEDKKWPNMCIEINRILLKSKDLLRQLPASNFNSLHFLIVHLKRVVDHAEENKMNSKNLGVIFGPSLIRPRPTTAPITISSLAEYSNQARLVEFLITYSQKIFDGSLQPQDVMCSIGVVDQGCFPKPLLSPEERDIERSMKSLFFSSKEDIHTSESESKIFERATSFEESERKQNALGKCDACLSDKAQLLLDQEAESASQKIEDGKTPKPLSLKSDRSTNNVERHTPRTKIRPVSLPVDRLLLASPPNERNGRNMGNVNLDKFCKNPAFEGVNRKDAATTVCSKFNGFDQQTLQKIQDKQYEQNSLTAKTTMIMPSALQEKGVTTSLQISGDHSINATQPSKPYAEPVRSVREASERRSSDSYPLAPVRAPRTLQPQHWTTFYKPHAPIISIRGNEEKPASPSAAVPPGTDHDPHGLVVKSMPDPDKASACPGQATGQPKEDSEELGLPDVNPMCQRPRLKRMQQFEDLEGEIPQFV

compound: ClCC(=O)N[C@H]1CCCc2ccccc12; assay: log2 mean competition ratio of IA-DTB cysteine labelling (DMSO/compound) (log2 ratio); higher = stronger cysteine engagement by compound; conditions: 50 µM; treatment time: 4 h; cell line lysate: HEK293T
Protocol: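 IA-DTB competitive cysteine chemoproteomics in HEK293T RIPA lysate. Lysates were treated with compound 29 or 30 at 50 or 200 µM for 4 h, then IA-DTB (500 µM, 1 h), trypsin-digested, NeutrAvidin-enriched and analysed by diaPASEF. Competition ratio = intensity DMSO / intensity compound (n=4 treated, n=64 DMSO); binding: mean log2 CR ≥ 1 and p ≤ 0.05 plus QC filters. Target is the cysteine site.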

Target	log2 mean competition ratio
ARFGEF1 C1729 (UniProt Q9Y6D6)	0.164
AS3MT C226	-0.598
ANKRD16 C99 (UniProt Q6P6B7)	-0.174
ARFGEF1 C1200 (UniProt Q9Y6D6)	0.0693
APAF1 C633 (UniProt O14727)	-0.132
ARL16 C164	-0.315
ARMC10 C59 (UniProt Q8N2F6)	-0.0739
AP3M1 C288 (UniProt Q9Y2T2)	0.235
ARHGEF26 C491	-0.347
AP1AR C188 (UniProt Q63HQ0)	-0.183
APEX2 C368 (UniProt Q9UBZ4)	0.0457
ARHGEF40 C1282 (UniProt Q8TER5)	-0.184
ASMTL C130 (UniProt O95671)	1.01
ARHGAP24 C75 (UniProt Q8N264)	-0.365
ARHGAP17 C305 (UniProt Q68EM7)	-0.309
ARMC8 C3	0.122
ARHGAP29 C518 (UniProt Q52LW3)	0.142
ARMC6 C435 (UniProt Q6NXE6)	0.459
APAF1 C426 (UniProt O14727)	0.0626
ANKRD54 C230 (UniProt Q6NXT1)	-0.503

same assay, conditions: 200 µM; treatment time: 4 h; cell line lysate: HEK293T

Target	log2 mean competition ratio
ARFGEF1 C1729 (UniProt Q9Y6D6)	0.0936
AS3MT C226	0.212
ANKRD16 C99 (UniProt Q6P6B7)	0.305
ARFGEF1 C1200 (UniProt Q9Y6D6)	0.0112
APAF1 C633 (UniProt O14727)	-0.307
ARL16 C164	0.246
ARMC10 C59 (UniProt Q8N2F6)	0.0419
AP3M1 C288 (UniProt Q9Y2T2)	0.0262
ARHGEF26 C491	0.106
AP1AR C188 (UniProt Q63HQ0)	0.14
APEX2 C368 (UniProt Q9UBZ4)	0.154
ARHGEF40 C1282 (UniProt Q8TER5)	0.0211
ASMTL C130 (UniProt O95671)	-0.171
ARHGAP24 C75 (UniProt Q8N264)	-0.169
ARHGAP17 C305 (UniProt Q68EM7)	-0.156
ARMC8 C3	0.139
ARHGAP29 C518 (UniProt Q52LW3)	0.0818
ARMC6 C435 (UniProt Q6NXE6)	0.426
APAF1 C426 (UniProt O14727)	0.0692
AP2A1 C941 (UniProt O95782)	0.0158
ANKRD54 C230 (UniProt Q6NXT1)	0.167
